This is an account of results in PubChem BioAssay (NCATS).

Several values for one entry are separate records, joined by “and”; a condition that tells them apart may be missing. Equal values may be shown once. This is one part of the list. Further columns of the screen follow, without active or inactive calls. The list favours compounds with an active or inconclusive main result. For some of these results: Potencies come from curve fits of mixed quality, noted in brackets.

The nature of test [1]: qHTS assay for small molecule antagonists of peroxisome proliferator-activated receptor gamma signaling (AID 588537). The note with it: HEK293 PPARg-UAS-bla, beta-lactamase ratio, antagonist mode; measured here: W460 blue channel. In outline: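 Step one: plate 3000 HEK293 UAS-bla cells per well in medium with 1% stripped serum and hold 6-6.5 h at 37 C. Step two: add compound and 50 nM agonist for 16 h. Step three: CCF4 loading, fluorescence read.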

Test [2] is described as follows: qHTS assay for small molecule agonists of retinoid X receptor alpha signaling (AID 588544). The note with it: HEK293T RXRa-UAS-bla, beta-lactamase reporter, 18 h; 530 nm emission. A general note: qHTS replaces the single test concentration by a dilution series.
Test [3] is described as follows: qHTS assay for small molecule antagonists of retinoid X receptor alpha signaling (AID 588546).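 Also: cells stimulated with 9-cis-retinoic acid as agonist; % is scaled to controls: 0 for no effect and ±100 for the full control effect.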 The note with it: HEK293T RXRa-UAS-bla, beta-lactamase ratio, antagonist mode; measured here: W530 green channel, cytotoxicity proxy. The method in brief: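 Beta-lactamase reporter inhibition, read as CCF4 fluorescence ratio (ex 405, em 460/530 nm) after 2 h at RT. HEK293T UAS-bla cells, 2500/well, were stimulated with 9-cis-RA at 500 or 100 nM final alongside test compound for 18 h at 37 C.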

Test [4] in a line: S16 Schwann cell PMP22 intronic element beta-lactamase assay (AID 624044). The note with it: S16 rat Schwann cells, PMP22 element beta-lactamase FRET, 24 h. In outline:
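Rat S16 Schwann cells with beta-Lac driven by a PMP22 intronic element, compound-treated 24 h at 37 °C. LiveBLAzer FRET B/G read: 460 nm normalized to potassium clavulanate vs DMSO; 535 nm FRET as viability; concentration-effect curves classified.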

Test [5] in a line: qHTS assay for small molecule antagonists of vitamin D receptor signaling (AID 588541). The note with it: HEK293T VDR-UAS-bla, beta-lactamase ratio, antagonist mode; measured here: W460 blue channel (cell viability).
[6] abbreviates: measured here: 460 nm blue channel.
[7] abbreviates: measured here: 530 nm viability channel.

Regarding `CCC(O)OC(O)CC` (centres undefined), the AC50 (in general, the midpoint of the concentration-response curve, whichever way the signal moves) in test [1] is 0.00126 µM [falling, full curve, poor fit]. Also, the max response was -7.49% in test [2]; -6.4% and 2.94% in test [3].
With `OCl`, the AC50 is 50.1 µM [rising, single point] in test [1] and 14.1 µM [falling, single point] in test [4] (setting [6]).
Turning to `CCOC(=O)NCCOc1ccc(Oc2ccccc2)cc1`, the AC50 in test [1] is 39.8 µM [falling, partial curve, poor fit]. Further, the values for the max response in test [2] and in test [3] were 12.8% and -2.31%, respectively.
Turning to `CCCC/C=C/CCCCO`, in test [5], the AC50 is 25.1 µM [rising, partial curve, poor fit].
As for `O=Cc1ccc(Cl)c(Cl)c1`, the AC50 in test [1] was 50.1 µM [rising, single point]. Besides, in test [3], the max response is -8.84%.
With `O=C(O)c1ccc(S(=O)(=O)N(Cl)Cl)cc1`, the AC50 in test [5] was 0.00562 µM [falling, full curve, poor fit].
As for `NC(=S)NNC(N)=S`, in test [1], the AC50 was 0.355 µM [rising, full curve, poor fit]. For the same compound, in test [3], the max response was determined as 30.6%.
`Nc1ccc(S(=O)(=O)O)cc1`: the AC50 in test [1] was 50.1 µM [rising, single point] and 1.58 nM [falling, full curve, poor fit]. For the same compound, in test [3], the max response was -19.9%.
Regarding `COc1ccc(N=[N+]([O-])c2ccc(OC)cc2)cc1`, the AC50 in test [1] is 50.1 µM [falling, partial curve, poor fit]. Moreover, the max response in test [2] is -13.3%.
For the compound `COc1ccccc1NC(=O)CC(C)=O`, in test [1], the AC50 was 15.8 µM [rising, partial curve, poor fit]. Besides, in test [2], the max response turned out to be 8.98%.
Consider `Oc1ccc2ccccc2c1N=Nc1ccccc1`, for which the AC50 in test [1] is 0.00126 µM [falling, full curve, poor fit]. The max response in test [2] was -17.5%.
In the case of `C=Cc1ccccc1`, the AC50 in test [1] was 44.7 µM [rising, single point]. For the same compound, the max response in test [2] is -10.2%.
In the case of `CCCC/C=C\CCCCCCCCCC=O`, the AC50 in test [1] was 0.00112 µM [falling, full curve, poor fit]. Further, the max response in test [2] is -0.409%.
With `O=C(Cl)c1ccccc1[N+](=O)[O-]`, the AC50 in test [1] was 50.1 µM [rising, single point]. In test [3], the max response was -6.66%.
With `Cc1c(C(=O)NCCO)[n+](=O)c2ccccc2n1[O-]`, the AC50 is 0.0282 µM [falling, full curve, poor fit] in test [1] and 12.6 µM [rising, single point] in test [4] (setting [6]).
In the case of `CCCCCCCC/C=C\CCCCCCCC(=O)N(CCO)CCO`, the AC50 in test [1] is 44.7 µM [falling, partial curve, poor fit]. For the same compound, the max response in test [3] is 32.5%.
With `CCCCCCCCCCCO`, in test [1], the AC50 is 0.00158 µM [falling, full curve, poor fit]. Further, in test [3], the max response is -16.1%.
With `Cc1ccc(O)c(N)c1`, the AC50 in test [5] is 28.2 µM [falling, full curve, poor fit].
Take `CC(COc1ccc(C(C)(C)C)cc1)OS(=O)OCCCl` (centres undefined): in test [1], the AC50 is 25.1 µM [falling, full curve]. Moreover, the max response was 15.6% in test [2] and 1.32% in test [3].
Consider `CCOC(=O)c1ccc(O)cc1`, for which the AC50 in test [5] is 0.0891 µM [falling, full curve, poor fit].
Consider `Cc1ccc(C)c([N+](=O)[O-])c1`, for which the AC50 in test [5] was 0.00282 µM [falling, full curve, poor fit].
Consider `CNc1ccc(O)cc1`, for which the AC50 in test [1] is 70.8 µM [rising, single point]. In addition, the max response in test [2] came out at 40%; in test [3] it was 38.1%.
With `S=C1NC=NC2N=CNC12` (centres undefined), in test [4] (setting [6]), the AC50 is 5.01 µM [falling, full curve].
The same measure, in the same setting: then `Nc1c2ccccc2nc2ccccc12`, with 22.4 µM [falling, partial curve].
Take `CCCCC[C@H](O)/C=C\[C@@H]1[C@H](O)CC(=O)[C@@H]1CCCCCCC(=O)O`: the AC50 in test [4] (setting [7]) was 0.0282 µM [falling, full curve].
`CC(=O)Nc1ccc(S(=O)(=O)Nc2ccc([N+](=O)[O-])cc2)cc1`: the AC50 in test [4] (setting [6]) was 25.1 µM [falling, single point]; in test [4] (setting [7]) it was 28.2 µM [falling, single point].
As for `O=C1OC(OC(=O)c2cccnc2Nc2cccc(C(F)(F)F)c2)c2ccccc21` (centres undefined), the AC50 was 0.0178 µM [falling, full curve, poor fit] in test [4] (setting [6]) and 31.6 µM [falling, partial curve] in test [4] (setting [7]).
For `CC(C)CCC[C@@H](C)[C@H]1CC[C@H]2[C@@H]3CC[C@@H]4C[C@H](O)CC[C@]4(C)[C@H]3CC[C@]12C`, the AC50 is 14.1 µM [falling, single point] in test [4] (setting [6]) and 12.6 µM [falling, single point] in test [4] (setting [7]).
For `CC[C@@]1(O)C(=O)OCc2c1cc1n(c2=O)Cc2cc3c([N+](=O)[O-])cccc3nc2-1`, the AC50 in test [4] (setting [6]) is 0.999 µM [falling, full curve]; in test [4] (setting [7]), 1.12 µM [rising, full curve].
For the compound `COc1cc(/C=C2\CCC/C(=C\c3ccc(O)c(OC)c3)C2=O)ccc1O`, the AC50 was 25.1 µM [falling, partial curve] in test [4] (setting [6]) and 28.2 µM [rising, single point] in test [4] (setting [7]).
On to `O=C1C(=O)c2ncccc2-c2cccnc21`, for which the AC50 was 22.4 µM [rising, partial curve, poor fit] in test [4] (setting [6]) and 25.1 µM [rising, partial curve] in test [4] (setting [7]).
`CCOC(=O)c1c[nH]c2cc(OCC(C)C)c(OCC(C)C)cc2c1=O`: the AC50 in test [4] (setting [6]) was 1.26 µM [falling, partial curve, poor fit]; in test [4] (setting [7]), 1.41 µM [falling, single point].
Take `COc1cc(NCCCC(C)N)c2ncccc2c1` (centres undefined): the AC50 in test [4] (setting [6]) was 1.58 µM [falling, full curve, poor fit]; in test [4] (setting [7]), 2.24 µM [falling, full curve].
As to `Cc1cccc(Nc2ccncc2S(=O)(=O)NC(=O)NC(C)C)c1`, the AC50 in test [4] (setting [6]) was 0.213 µM [falling, full curve, poor fit]; in test [4] (setting [7]) it was 0.00355 µM [falling, full curve].
